Experiment in all cases: affinity purification with mass spectrometry; 96-sample screen of 30 GFP-tagged baits: captured from cleared yeast lysate (500 ug) on GFP-multiTrap plate, 60 min, 4 C, 150 mM NaCl, 50 mM Tris-HCl pH 8.0; biological triplicates; 27 min method (Q Exactive Plus); enrichment against the parental strain, FDR-controlled t test and profile …
Assay [1] concerns the target RSC4, GFP-tagged bait (S. cerevisiae) (UniProt Q02206).
The target of assay [2] is RSC8, GFP-tagged bait (S. cerevisiae) (UniProt P43609).
For assay [3], the target named is RSC2, GFP-tagged bait (S. cerevisiae) (UniProt Q06488).

Sequences of proteins named here, by UniProt entry; tags and fusion partners are left off.
UniProt Q02206: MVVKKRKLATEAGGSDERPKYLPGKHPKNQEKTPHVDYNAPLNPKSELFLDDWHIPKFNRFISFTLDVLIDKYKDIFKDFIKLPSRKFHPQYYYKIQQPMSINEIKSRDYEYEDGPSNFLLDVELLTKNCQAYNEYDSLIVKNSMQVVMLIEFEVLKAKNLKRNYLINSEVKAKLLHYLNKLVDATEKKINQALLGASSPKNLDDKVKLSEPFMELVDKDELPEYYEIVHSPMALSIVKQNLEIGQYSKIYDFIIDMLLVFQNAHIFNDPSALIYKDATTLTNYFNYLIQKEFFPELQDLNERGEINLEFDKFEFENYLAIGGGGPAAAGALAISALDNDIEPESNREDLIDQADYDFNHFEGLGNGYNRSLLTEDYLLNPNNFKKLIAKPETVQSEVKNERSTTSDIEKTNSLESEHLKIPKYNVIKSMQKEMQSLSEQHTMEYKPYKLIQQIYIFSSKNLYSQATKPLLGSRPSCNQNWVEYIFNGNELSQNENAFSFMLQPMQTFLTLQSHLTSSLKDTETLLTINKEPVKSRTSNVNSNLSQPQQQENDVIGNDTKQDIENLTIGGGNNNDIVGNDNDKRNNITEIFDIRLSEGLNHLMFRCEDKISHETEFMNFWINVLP
UniProt P43609: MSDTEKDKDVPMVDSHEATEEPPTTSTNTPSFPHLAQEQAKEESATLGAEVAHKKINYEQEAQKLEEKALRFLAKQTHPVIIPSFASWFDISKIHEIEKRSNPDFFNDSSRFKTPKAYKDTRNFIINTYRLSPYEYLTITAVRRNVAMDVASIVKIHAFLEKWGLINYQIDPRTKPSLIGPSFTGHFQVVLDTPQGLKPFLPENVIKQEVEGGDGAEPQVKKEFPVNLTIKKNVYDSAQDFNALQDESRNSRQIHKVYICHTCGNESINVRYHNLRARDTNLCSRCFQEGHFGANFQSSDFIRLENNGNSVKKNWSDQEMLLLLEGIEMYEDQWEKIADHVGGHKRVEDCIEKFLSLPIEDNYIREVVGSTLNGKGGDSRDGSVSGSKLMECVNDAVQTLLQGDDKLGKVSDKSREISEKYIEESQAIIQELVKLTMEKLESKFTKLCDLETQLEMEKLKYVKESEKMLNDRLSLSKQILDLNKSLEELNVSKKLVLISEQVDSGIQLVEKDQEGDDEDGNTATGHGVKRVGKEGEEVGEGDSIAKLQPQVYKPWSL
UniProt Q06488: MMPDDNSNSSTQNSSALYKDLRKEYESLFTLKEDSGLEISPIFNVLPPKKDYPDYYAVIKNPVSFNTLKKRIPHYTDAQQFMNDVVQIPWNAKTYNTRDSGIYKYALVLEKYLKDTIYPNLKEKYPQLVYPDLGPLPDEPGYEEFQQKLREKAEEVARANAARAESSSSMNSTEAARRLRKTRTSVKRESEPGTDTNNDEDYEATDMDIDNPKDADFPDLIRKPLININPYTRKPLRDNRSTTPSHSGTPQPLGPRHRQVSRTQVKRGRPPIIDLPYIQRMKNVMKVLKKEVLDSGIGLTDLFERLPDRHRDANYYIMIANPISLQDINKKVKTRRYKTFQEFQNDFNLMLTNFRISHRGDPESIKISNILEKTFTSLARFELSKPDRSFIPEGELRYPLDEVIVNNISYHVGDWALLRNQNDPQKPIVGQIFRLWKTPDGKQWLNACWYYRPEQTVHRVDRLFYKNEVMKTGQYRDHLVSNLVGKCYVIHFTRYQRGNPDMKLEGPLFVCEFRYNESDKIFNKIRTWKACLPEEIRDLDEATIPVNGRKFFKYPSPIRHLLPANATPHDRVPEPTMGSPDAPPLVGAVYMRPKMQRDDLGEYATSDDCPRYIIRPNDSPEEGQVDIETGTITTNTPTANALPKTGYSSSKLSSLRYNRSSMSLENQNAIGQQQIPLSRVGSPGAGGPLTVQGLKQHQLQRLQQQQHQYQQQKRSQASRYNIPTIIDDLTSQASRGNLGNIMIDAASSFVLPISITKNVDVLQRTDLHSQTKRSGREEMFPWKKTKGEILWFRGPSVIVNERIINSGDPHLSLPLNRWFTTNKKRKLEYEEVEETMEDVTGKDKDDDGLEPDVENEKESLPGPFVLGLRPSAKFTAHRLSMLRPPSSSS

No constants are given. Whether binding was seen depends on the method and setting. In cells and extracts the contact can be indirect. A yes stands for co-enrichment or nearness to the bait. Other partners may have been found. For some assays here: A no says only that the protein was not detected with the bait.

On to RSC2 (from UniProt Q06488 1-889), for which the binding result in assay [1] and in assay [2] was “binds” throughout.

B1: RSC1 (protein, UniProt P53236 1-928)
chain: MVEQDNGFLQKLLKTQYDAVFHLKDENGIEIYPIFNVLPPKKEYPDYYIIIRNPISLNTLKKRLPHYTSPQDFVNDFAQIPWNAMTYNAKDSVIYKYAILLESFIKGKIVHNIRKHYPEVTYPSLGRIPEIFAESMQPSDLSSNPINTQENDEKAGLNPEMKMAFAKLDSSITERKPTNQDYRMQQKNSPAFPTHSASITPQPLASPTPVVNYANITSAHPKTHVRRGRPPVIDLPYVLRIKNILKMMRREVDQNNKTLTLCFEKLPDRNEEPTYYSVITDPICLMDIRKKVKSRKYRNFHTFEEDFQLMLTNFKLYYSQDQSNIIRAQLLEKNFNRLVRIELSKPDEDYLPEGELRYPLDDVEINDEKYQIGDWVLLHNPNDINKPIVGQIFRLWSTTDGNKWLNACWYFRPEQTVHRVDRLFYKNEVMKTGQYRDHPIQDIKGKCYVIHFTRFQRGDPSTKVNGPQFVCEFRYNESDKVFNKIRTWKACLPEELRDQDEPTIPVNGRKFFKYPSPIADLLPANATLNDKVPEPTEGAPTAPPLVGAVYLGPKLERDDLGEYSTSDDCPRYIIRPNDPPEEGKIDYETGTIITDTLTTSSMPRVNSSSTIRLPTLKQTKSIPSSNFRSSSNTPLLHQNFNQTSNFLKLENMNNSSHNLLSHPSVPKFQSPSLLEQSSRSKYHSAKKQTQLSSTAPKKPASKSFTLSSMINTLTAHTSKYNFNHIVIEAPGAFVVPVPMEKNIRTIQSTERFSRSNLKNAQNLGNTAINDINTANEQIIWFKGPGVKITERVIDSGNDLVRVPLNRWFCKNKRRKLDYEDIEEDVMEPPNDFSEDMIANIFNPPPSLNLDMDLNLSPSSNNSSNFMDLSTIASGDNDGKECDTAEESEDENEDTEDEHEIEDIPTTSAFGLNSSAEYLAFRLREFNKL
In the case of B1, the binding result in assay [3] is “no binding”; in assay [1] it was “binds”; in assay [2] it was “binds”.
